From PubChem BioAssay AID1347076 (National Center for Advancing Translational Sciences (NCATS), 2019)
About 13,000 (3.2%) of roughly 400,000 compounds were called active. Inconclusive results, whose numbers are uncertain, are shown with a selection of clear calls. Calls follow the shape of the dose curve; as a rule, active = well fitted cell-killing curve with a large enough effect; inconclusive = small, poorly fitted or top-dose-only effect, or effect the other way; inactive = flat fitted curve, though single readings scatter. Where the call is inconclusive, the potency comes from a doubtful curve fit.

assay: qHTS assay for MDR1-selective chemotherapeutics: Primary screen using the drug-selected MDR subline cells KB-V1; conditions: KB-V1 MDR cells viability, CellTiter-Glo, 72 h; activity change, negative = cytotoxicity: at 46.1 µM (top of the series); also: nearly all actives have a fitted effect of over 60% in size
How it was run: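 Following 72 h at 37 degrees C with compound, KB-V1 cell viability was read by CellTiter-Glo luminescence, medium being phenol-red-free DMEM plus 10% FBS; concentration-response parameters came from normalized, curve-fitted qHTS data.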
% is scaled to controls: 0 for no effect and ±100 for the full control effect; potency is read from the fitted curve at half-maximal effect.

Compound | Potency | activity change, negative = cytotoxicity
COCCn1c(SCC(=O)Nc2cc(C)on2)nc2cc(Cl)ccc2c1=O | inconclusive: 1.46 µM [cytotoxic, partial curve, poor fit] | –
CCCCNC(=O)C1(C)CCCCN1Cc1ccc2ccccc2c1 (stereo not given) | inconclusive: 20.6 µM [cytotoxic, partial curve, poor fit] | –
O=S(=O)(c1ccc(Cl)cc1)N1CCN(C(=S)Nc2ccccc2F)CC1 | inactive | –
CC(C)c1ccc(Nc2sc(C(=O)c3ccccc3)c(N)c2S(=O)(=O)c2ccccc2)cc1 | inactive | –
COC(=O)c1cc2c(-c3ccccc3)c(C)c3ccccn3c-2c1C(=O)OC | inconclusive: 13 µM [cytotoxic, partial curve] | –
Cc1ccc(-c2nc3ccc(Br)cn3c2Cc2cccc(F)c2)cc1 | inconclusive: 2.31 µM [cytotoxic, partial curve, poor fit] | –
CC1=[N+](C)c2ccc3ccccc3c2C1(C)C | inconclusive: 20.6 µM [rising, single point] | –
CCOC(=O)C1=C(C)NC(=O)NC1/C(C)=C/c1ccccc1 (stereo not given) | active: 20.6 µM | –
Cc1cc(C)cc(Cn2c3ccc(NC(=O)NCc4ccc(F)cc4)cc3c(=O)n2C)c1 | inactive | –
CCOC(=O)N1CCN(C(=O)CSC2=NS(=O)(=O)c3cc(Cl)ccc3N2)CC1 | inconclusive: 20.6 µM [rising, single point] | –
C/C(=N\NC(=O)Cc1cccc2ccccc12)c1ccncc1 | inconclusive: 20.6 µM [cytotoxic, partial curve, poor fit] | –
COc1cccc(Cn2c(C(C)n3c(-c4cnccn4)nc4ccccc43)nc3ccccc32)c1 (stereo not given) | active: 16.4 µM | –
CCC(=O)NC(=S)Nc1ccc(NC(=O)c2ccccc2[N+](=O)[O-])cc1 | inconclusive: 23.1 µM [cytotoxic, partial curve, poor fit] | –
COc1ccccc1NC(=O)Nc1ncccc1C | inconclusive: 29.1 µM [cytotoxic, single point] | –
CC(NC(=O)C1CCN(C(=O)c2ccc(F)cc2)CC1)c1ccc(S(N)(=O)=O)cc1 (stereo not given) | inconclusive: 29.1 µM [rising, single point] | –
O=C(NC(=O)c1ccccc1F)Nc1nc(-c2cccs2)cc(C(F)(F)F)n1 | inactive | –
S=C(NCCCN1CCOCC1)Nc1ccc(N2CCOCC2)cc1 | inconclusive: 32.6 µM [cytotoxic, single point] | –
OC(CNCc1cccnc1)COc1ccc2ccccc2c1 (stereo not given) | inconclusive: 0.13 µM [rising, full curve] | –
Cc1ccc(C)c(N2CCN(CCCNC(=O)c3ccc4nc(N5CCC(C)CC5)sc4c3)CC2)c1 | inconclusive: 20.6 µM [cytotoxic, single point] | –
O=C(NCCCc1ccccc1)c1ccc(F)cc1 | inactive | –
CCOC(=O)C1=C(N)Oc2cc(O)ccc2C1c1ccc(C)cc1 (stereo not given) | inconclusive: 16.4 µM [cytotoxic, partial curve, poor fit] | –
Cc1ccc2oc(-c3cccc(NC(=O)/C=C/c4cccc([N+](=O)[O-])c4)c3C)nc2c1 | inconclusive: 8.2 µM [cytotoxic, partial curve, poor fit] | –

Compound | Potency | activity change, negative = cytotoxicity
Nc1cc(=O)[nH]c(SCC(=O)Nc2cccc([N+](=O)[O-])c2)n1 | inconclusive: 29.1 µM [rising, single point] | –
Oc1cccc(C(O)CNCc2ccc(-c3ccccc3)cc2)c1 (stereo not given) | inconclusive: 29.1 µM [cytotoxic, single point] | –
Cc1ccc(NC(=O)c2cccc(OC(F)F)c2)c(OC(F)F)c1 | – | inconclusive: -46.4%
CC(c1ccccn1)N(C)C(=O)c1ccc2nc(Cc3cccc(Cl)c3)oc2c1 (stereo not given) | inconclusive: 2.31 µM [cytotoxic, partial curve, poor fit] | –
CCOc1cc(NC(=S)NCCCN2CCOCC2)c(OCC)cc1NC(=O)C(C)C | inconclusive: 5.17 µM [rising, partial curve, poor fit] | –
CC1CC(C)(C)Nc2ccc(OC(=O)c3ccco3)cc21 (stereo not given) | inconclusive: 29.1 µM [cytotoxic, single point] | –
CN1CCN(c2ccc([N+](=O)[O-])cc2C(=O)c2ccc(Br)cc2)CC1 | active: 4.11 µM | –
Cc1ccc(C)c(N(C(=O)CCC(=O)Nc2cc(C)on2)C(C(=O)NC2CCCC2)c2ccco2)c1 (stereo not given) | inactive | –
CCOc1ncccc1C(=O)OCC(=O)N1CCC(C)CC1 | inconclusive: 18.4 µM [cytotoxic, single point] | –
CCN(CC)S(=O)(=O)c1cc([N+](=O)[O-])ccc1N=Nc1c(O)[nH]c2ccccc12 | inconclusive: 1.46 µM [cytotoxic, full curve] | –
CN(C)/C=N/C1=C(C#N)C(c2ccc(Br)cc2)c2ccc3ccccc3c2O1 (stereo not given) | inconclusive: 18.4 µM [cytotoxic, single point] | –
COc1ccc(N2CCN(C(=O)c3ccc(NS(=O)(=O)c4ccc(F)cc4)cc3)CC2)cc1 | inactive | –
COc1cc(C2NC(=O)NC(C)=C2C(=O)OC2CCCC(C)C2)ccc1O (stereo not given) | inconclusive: 23.1 µM [cytotoxic, partial curve, poor fit] | –
COc1ccc(NC(=O)CN2CCC(C(=O)c3ccc(F)cc3)CC2)c(OC)c1 | inactive | –
O=[N+]([O-])c1ccc(N=Nc2ncc[nH]2)cc1 | inconclusive: 16.4 µM [cytotoxic, partial curve, poor fit] | –
CCc1c(C)c2cc3c(c(C)c2oc1=O)OCN(CCc1ccc(OC)c(OC)c1)C3 | inconclusive: 29.1 µM [cytotoxic, single point] | –
Cc1ccc(/C=N/NC(=O)c2nnn(-c3nonc3N)c2-c2ccc3c(c2)OCO3)s1 | inconclusive: 0.82 µM [cytotoxic, full curve, poor fit] | –
CCOC(=O)CNC(=O)Nc1cc(C(=O)NCc2ccc(C(C)C)cc2)ccc1N1CCCC1 | inactive | –
O=C1c2ccccc2C(c2nnnn2-c2ccc3ccccc3c2)N1C1CC1 (stereo not given) | inconclusive: 7.31 µM [cytotoxic, partial curve] | –
COc1cccc(CNC(=O)CCC2CCCN(C(=O)c3ccc(F)c(Cl)c3)C2)c1 (stereo not given) | inconclusive: 6.51 µM [cytotoxic, partial curve] | –
COCc1cc(C)n(CC(=O)NCc2ccccc2)c(=O)c1C#N | inconclusive: 20.6 µM [cytotoxic, single point] | –
CC(C)c1ccc(/C=C/C2=NNC(=O)CC2)cc1 | active: 0.184 µM | –

Two of the compounds above, field by field:
Oc1cccc(C(O)CNCc2ccc(-c3ccccc3)cc2)c1 (stereo not given)
  Potency: inconclusive: 29.1 µM [cytotoxic, single point]
Cc1ccc(NC(=O)c2cccc(OC(F)F)c2)c(OC(F)F)c1
  activity change, negative = cytotoxicity: inconclusive: -46.4%

Further entries follow.

Compound | Potency | activity change, negative = cytotoxicity
COc1ccccc1-c1noc(CSc2nnc(-c3ccccc3)n2-c2ccc(C)c(C)c2)n1 | inconclusive: 0.092 µM [cytotoxic, partial curve, poor fit] | –
Cc1ccsc1/C=N/Nc1ncnc2nc[nH]c12 | inactive | –
COc1ccc(NC(=O)COC(=O)c2cnccn2)cc1Cl | inconclusive: 6.51 µM [rising, partial curve, poor fit] | –
Cc1cccc(Oc2ccc(N)cc2)c1 | inactive | –
Cc1cccc(N(CC(=O)NC2CC2)S(=O)(=O)c2ccc(Cl)cc2)c1 | inconclusive: 20.6 µM [cytotoxic, single point] | –
O=C(/C=C/c1ccc2c(c1)OCCO2)c1ccc(O)cc1 | inconclusive: 20.6 µM [cytotoxic, single point] | –
O=C(Nc1cccc2ccccc12)c1ccc(OC(=S)N2CCOCC2)cc1 | inconclusive: 11.6 µM [cytotoxic, partial curve] | –
O=C(NCC(=O)N1CCN(Cc2ccccc2)CC1)c1cc(Cl)cc([N+](=O)[O-])c1 | inconclusive: 32.6 µM [cytotoxic, partial curve, poor fit] | –
Cc1cc(C(=O)NC(C)c2ccncc2)cs1 (stereo not given) | inconclusive: 29.1 µM [cytotoxic, single point] | –
COc1ccc(-c2nc(=S)c3c([nH]2)Oc2ccc(C)cc2C3)cc1O | inconclusive: 16.4 µM [cytotoxic, single point] | –
COc1ccc(C(=O)OCC(=O)Nc2ccccc2)cc1[N+](=O)[O-] | inconclusive: 3.66 µM [rising, full curve, poor fit] | –
c1ccc(COC(CN2CCCCCC2)CN2CCCCCC2)cc1 | inconclusive: 23.1 µM [cytotoxic, partial curve] | –
COc1cc(C(=O)OCc2cccc(OC)c2OC)ccc1OCC(=O)N1CCOCC1 | inconclusive: 18.4 µM [cytotoxic, single point] | –
COc1ccc(OCC(O)CN(CCO)CC(O)Cn2ccc3ccccc32)cc1 (stereo not given) | inconclusive: 11.6 µM [cytotoxic, partial curve] | –
COc1ccccc1NC(=O)COc1ccc(Br)cc1CNC1CCCC1 | inconclusive: 9.2 µM [cytotoxic, partial curve, poor fit] | –
Nc1cc(S(=O)(=O)N2CCOCC2)ccc1N1CCOCC1 | inconclusive: 29.1 µM [rising, single point] | –
O=C(CSc1ncc(-c2ccc(Cl)cc2)[nH]1)Nc1ccccc1F | inactive | –
COc1ccc(C2NC(c3ccc4c(c3)OCO4)=CC(c3ccccc3O)N2)cc1OC (stereo not given) | inconclusive: 3.26 µM [cytotoxic, partial curve, poor fit] | –
Cc1ccc(SCc2c(C(=O)N/N=C/c3cccs3)nnn2-c2nonc2N)cc1 | inconclusive: 18.4 µM [cytotoxic, single point] | –
CCOC(=O)N1CCN(C(=O)CCCCCn2c(=S)[nH]c3ccsc3c2=O)CC1 | inactive | –
CCOC(=O)c1c2ccc(OCC(=O)N/N=C/c3ccc(C)cc3)cc2n2ccccc12 | inconclusive: 29.1 µM [cytotoxic, single point] | –
